The supplement of paper PMC4604168 (melanoma cell lines)
Some of the results follow. Many values rest on one well or one pass, so single values are uncertain.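 Cells were imaged in 1,536-well plates, and nuclei stained with an antibody against cleaved PARP were counted against all DNA-stained nuclei to give the apoptosis fraction. Screening doses were chosen to leave most cells alive, and resting and induced cleaved-PARP levels differ strongly between cell lines.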

Tests used:
Assay in all cases: cleaved PARP positive nuclei fraction relative to DMSO control; melanoma cells; higher = more apoptosis
Conditions in all cases: library dose: low library concentration; 72 h
[1] = test system: COLO792
[2] = test system: COLO800
[3] = test system: COLO829
[4] = test system: G361
[5] = test system: IPC-298
[6] = test system: IST-MEL1
[7] = test system: LB2518-MEL
[8] = test system: LOXIMVI
[9] = test system: MEL-HO
[10] = test system: MZ2-MEL
[11] = test system: MeWo
[12] = test system: RPMI7951
[13] = test system: RVH-421
[14] = test system: SkMel28
[15] = test system: SkMel2
[16] = test system: SkMel30
[17] = test system: SkMel5
[18] = test system: UACC257
[19] = test system: UACC62
[20] = test system: CBRC034 (line from a melanoma biopsy)

| SMILES | cleaved PARP positive nuclei fraction [1] | cleaved PARP positive nuclei fraction [2] | cleaved PARP positive nuclei fraction [3] | cleaved PARP positive nuclei fraction [4] | cleaved PARP positive nuclei fraction [5] | cleaved PARP positive nuclei fraction [6] | cleaved PARP positive nuclei fraction [7] | cleaved PARP positive nuclei fraction [8] | cleaved PARP positive nuclei fraction [9] | cleaved PARP positive nuclei fraction [10] | cleaved PARP positive nuclei fraction [11] | cleaved PARP positive nuclei fraction [12] | cleaved PARP positive nuclei fraction [13] | cleaved PARP positive nuclei fraction [14] | cleaved PARP positive nuclei fraction [15] | cleaved PARP positive nuclei fraction [16] | cleaved PARP positive nuclei fraction [17] | cleaved PARP positive nuclei fraction [18] | cleaved PARP positive nuclei fraction [19] | cleaved PARP positive nuclei fraction [20] |
| --- | --- | --- | --- | --- | --- | --- | --- | --- | --- | --- | --- | --- | --- | --- | --- | --- | --- | --- | --- | --- |
| Cc1ccc(Nc2nccc(N(C)c3ccc4c(C)n(C)nc4c3)n2)cc1S(N)(=O)=O [Pazopanib] + COc1cc(Nc2ncc(F)c(Nc3ccc4c(n3)NC(=O)C(C)(C)O4)n2)cc(OC)c1OC [Tamatinib] (first compound 0.4 µM, partner dose 0.4 µM) | 204% | 105% | 88.3% | 59.3% | 184% | 161% | 228% | 54.5% | 191% | 142% | 64.6% | 137% | 26.5% | 77% | 95.2% | 259% | 101% | 93.5% | 47.9% |  |
| O=c1[nH]nc(Sc2ncc([N+](=O)[O-])s2)n1-c1ccc2c(c1)OCCO2 + CN(NC(=O)CC(=O)NN(C)C(=S)c1ccccc1)C(=S)c1ccccc1 [STA4783] (first compound 0.2 µM, partner dose 0.006 µM) | 66.3% | 139% | 198% | 101% | 388% | 155% | 259% | 78.5% | 71.7% | 121% | 102% | 70.3% | 52.3% | 129% | 77.6% | 140% | 247% | 47% | 236% |  |
| O=C(Nc1cc(C(F)(F)F)cc(C(F)(F)F)c1)c1cc(Cl)ccc1O + C[C@@H]1CCN(C(=O)CC#N)C[C@@H]1N(C)c1ncnc2[nH]ccc12 [CP690550] (first compound 0.016 µM, partner dose 1 µM) | 19.8% | 62.4% | 81.8% | 318% | 95.8% | 34.9% | 192% | 72.6% | 35.1% | 73.6% | 107% | 99.1% | 22.1% | 99.4% | 92.8% | 55.2% | 48.5% | 98.5% | 134% |  |
| O=c1[nH]nc(Sc2ncc([N+](=O)[O-])s2)n1-c1ccc2c(c1)OCCO2 + COc1cc2c(Oc3ccc4[nH]c(C)cc4c3F)ncnc2cc1OCCCN1CCCC1 [cediranib] (first compound 0.2 µM, partner dose 0.4 µM) | 119% | 135% | 74.9% | 39.3% | 45.4% | 126% | 85.5% | 26.9% | 121% | 98.9% | 176% | 34% | 70.5% | 26.9% | 87.2% | 73.7% | 95.8% | 95.9% | 72.4% |  |
| O=c1[nH]nc(Sc2ncc([N+](=O)[O-])s2)n1-c1ccc2c(c1)OCCO2 + Cc1cc(N2CCOCC2)cc2[nH]c(-c3c(NC[C@@H](O)c4cccc(Cl)c4)cc[nH]c3=O)nc12 [BMS536924] (first compound 0.2 µM, partner dose 0.2 µM) | 104% | 142% | 97.6% | 101% | 138% | 65.5% | 169% | 49.9% | 172% | 46.8% | 290% | 54.9% | 112% | 58.3% | 117% | 152% | 212% | 49.5% | 71.1% |  |
| Cc1cn(-c2cc(NC(=O)c3ccc(C)c(Nc4nccc(-c5cccnc5)n4)c3)cc(C(F)(F)F)c2)cn1 [nilotinib] + O=C(Nc1cccc(Cl)c1)Nc1ncc(CCNc2ncnc3ccsc23)s1 [SNS314] (first compound 0.2 µM, partner dose 0.0008 µM) | 197% | 133% | 111% | 109% | 47.1% | 118% | 108% | 1260% | 64.9% | 111% | 51.3% | 91.4% | 45.8% | 161% | 128% | 55.5% | 62.8% | 226% | 229% |  |
| COc1cc([C@@H]2c3cc4c(cc3[C@@H](O[C@@H]3O[C@@H]5CO[C@@H](C)O[C@H]5[C@H](O)[C@H]3O)[C@H]3COC(=O)[C@H]23)OCO4)cc(OC)c1O [etoposide] + CS(=O)(=O)CCNCc1ccc(-c2ccc3ncnc(Nc4ccc(OCc5cccc(F)c5)c(Cl)c4)c3c2)o1 [lapatinib] (first compound 0.02 µM, partner dose 0.8 µM) | 113% |  | 159% | 60.6% | 88.8% | 38.6% | 113% | 78% | 117% | 91.8% | 68.4% | 86.2% | 73.9% | 129% | 129% | 132% |  |  | 71.7% | 132% |
| CCCCCCCCCCCCCCCCCCOP(=O)([O-])OC1CC[N+](C)(C)CC1 [Perifosine] + CN(NC(=O)CC(=O)NN(C)C(=S)c1ccccc1)C(=S)c1ccccc1 [STA4783] (first compound 0.4 µM, partner dose 0.006 µM) | 188% | 68.3% | 166% | 156% | 124% | 242% | 116% | 81.5% | 76.7% | 115% | 29.2% | 202% | 22.9% | 64.3% | 51.8% | 63.1% | 206% | 58.2% | 147% |  |
